Test results as given in paper PMC5703946.
Results are given in words; binding and its absence hold for the method and conditions named. Binding seen in cells or lysates may run through a third protein. Binding can be weak; no strength is given. Where a sequence is shown, tags or fusion partners need not be part of it.

Protein sequences, listed by entry. Tags and fused reporters are not part of them. Lines headed by an entry give the natural chain unless they say otherwise; changes in a name come on top.
UniProt F8QWU9: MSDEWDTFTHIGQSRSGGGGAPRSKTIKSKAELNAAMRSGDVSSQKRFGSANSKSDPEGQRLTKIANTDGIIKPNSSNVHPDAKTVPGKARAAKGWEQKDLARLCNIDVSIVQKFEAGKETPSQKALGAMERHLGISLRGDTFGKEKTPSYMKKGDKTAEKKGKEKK

Target: T1, His-yTBP (yeast TATA-box-binding protein) (S. cerevisiae) (UniProt P13393)
T1 sequence: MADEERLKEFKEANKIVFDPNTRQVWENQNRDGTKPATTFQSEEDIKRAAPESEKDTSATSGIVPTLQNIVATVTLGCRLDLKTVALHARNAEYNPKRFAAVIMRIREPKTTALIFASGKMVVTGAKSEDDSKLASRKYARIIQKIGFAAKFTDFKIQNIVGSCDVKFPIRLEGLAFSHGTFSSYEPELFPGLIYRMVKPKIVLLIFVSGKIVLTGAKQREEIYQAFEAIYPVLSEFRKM
Test: pull-down; His-yTBP held on Ni-NTA agarose beads (from soluble E. coli lysate, washed three times); equal amounts of purified GST-MBF1 proteins or purified GST incubated with the beads for 4 h at 4 °C; beads washed three times; detected by immunoblot (Wes) with anti-His and anti-GST antibodies; both purified

Substance | binding
GST-EpMBF1^K114D (Endocarpon pusillum) | binds
GST-EpMBF1 (Endocarpon pusillum multiprotein-bridging factor 1) (from UniProt F8QWU9) | binds
